Assay results as given in patent publication US7670806B2, “ADP-ribosyl acceptor hydrolase 3 (ARH3) polypeptides and methods of use” (The United States of America as represented by the …, priority 2005, dated 2010).
For some assays here: The name of at least one read-out is uncertain. For some assays here: At least one structure is not confirmed: it was looked up by name or label, or the drawing left a doubt.

How the values were obtained:
ARH3 = target: T1, ARH3 (Mus musculus, UniProt Q8CG72); assay: Inhibition of ARH3-catalyzed hydrolysis of O-acetyl-ADP-ribose; type: biochemical; settings: 2.5 μM O-acetyl-ADP-ribose; 2 pmol ARH3, 2 h at 30° C.
T1 construct: The entire coding regions were ligated into pGEX-2T expression vector; GST (N); made in house; host or cells: E. coli BL21 Rosetta
T1 sequence (Q8CG72 1-370): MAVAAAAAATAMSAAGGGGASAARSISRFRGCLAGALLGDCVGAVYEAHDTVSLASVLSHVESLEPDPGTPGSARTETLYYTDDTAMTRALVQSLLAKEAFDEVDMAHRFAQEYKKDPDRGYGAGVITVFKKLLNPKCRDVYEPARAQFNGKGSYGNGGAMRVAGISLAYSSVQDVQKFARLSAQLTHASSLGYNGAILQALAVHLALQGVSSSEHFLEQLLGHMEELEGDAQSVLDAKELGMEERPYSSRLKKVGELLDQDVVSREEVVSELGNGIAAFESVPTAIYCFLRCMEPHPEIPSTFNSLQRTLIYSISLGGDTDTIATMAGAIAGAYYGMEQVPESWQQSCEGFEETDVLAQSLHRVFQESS
Description: FIG. 15A is a graph of the results from an assay with 2 pmol of ARH3 and the indicated amount of ADP-ribose (●) or β-NAD (∘) in 200 μl for 2 h at 30° C., as described in FIG. 11B. FIG. 15B is a graph of the inhibition of ARH3 hydrolysis by ADP-ribose data schematized for Lineweaver-Burk plot.
Mouse ARH3 (2 pmol) and 2.5 μM O-acetyl-[^14C]ADP-ribose (5,000 cpm) in 200 μl of buffer containing 50 mM potassium phosphate (pH 7.0), 10 mM MgCl2 and 5 mM DTT were incubated for 2 h at 30° C., before separation of substrate and products using RP-HPLC as described below.
Hydrolysis of O-acetyl-[^14C]ADP-ribose catalyzed by ARH3. Assays containing the indicated concentration of O-acetyl-[^14C]-ADP-ribose (0.1 to 2 nmol, 1,000 to 20,000 cpm) and 1.5 pmol of ARH3 in 200 μl of buffer (50 mM KPO4 (pH 7.0), 10 mM MgCl2, 5 mM DTT) were incubated at 30° C. for 20 min. Substrate and products were separated using RP-HPLC. Amounts of product were corrected for ADP-ribose produced in the absence of ARH3 before calculation of hydrolysis rates.
ADP-ribose inhibited ARH3-catalyzed hydrolysis of 2.5 μM O-acetyl-ADP-ribose, ˜50% at a concentration of ca. 10 μM.

[1] = Rafty et al. (2002); cited from earlier work

Molecule | Inhibition of ARH3 hydrolysis (in words) (ARH3) | kcat/Km, O-acetyl-ADP-ribose [1] [M⁻¹ s⁻¹]
NC(=O)c1ccc[n+]([C@@H]2O[C@H](COP(=O)([O-])OP(=O)(O)OC[C@H]3O[C@@H](n4cnc5c(N)ncnc54)[C@H](O)[C@@H]3O)[C@@H](O)[C@H]2O)c1 [β-NAD, nicotinamide adenine dinucleotide] | relatively little effect | –
murine Nudix: murine Nudix family ADP-ribose pyrophosphatase (Rafty et al. 2002) | – | 45100
